These results are taken from publication doi:10.1101/2024.12.03.626679, “Structure of the SMYD2-PARP1 Complex Reveals Both Productive and Allosteric Modes of Peptide Binding” (bioRxiv, 2024).

The chains behind the UniProt entries cited, without tags or fusion partners. Where a name states a change or a piece, a line headed by the entry shows the natural chain unless it says otherwise.
UniProt Q9NRG4: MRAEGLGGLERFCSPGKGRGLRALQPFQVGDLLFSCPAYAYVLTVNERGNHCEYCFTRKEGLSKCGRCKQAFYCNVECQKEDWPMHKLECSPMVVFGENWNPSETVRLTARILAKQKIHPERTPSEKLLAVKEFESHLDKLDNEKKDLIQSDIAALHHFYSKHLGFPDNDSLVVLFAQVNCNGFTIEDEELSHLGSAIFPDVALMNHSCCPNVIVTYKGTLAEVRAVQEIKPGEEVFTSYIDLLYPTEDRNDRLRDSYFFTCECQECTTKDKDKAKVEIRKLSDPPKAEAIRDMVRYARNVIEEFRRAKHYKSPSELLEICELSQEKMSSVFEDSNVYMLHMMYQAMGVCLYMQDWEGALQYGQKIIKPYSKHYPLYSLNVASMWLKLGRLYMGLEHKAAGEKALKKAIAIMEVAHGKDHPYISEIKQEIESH

Results are given in words; binding and its absence hold for the method and conditions named.

Test [1] deals with SMYD2-L351A/W356A (human) (UniProt Q9NRG4). Description: crystal structure; co-crystallisation of SMYD2 proteins with AdoHcy and PARP1 peptide, hanging drop, 20°C; 20% PEG3350, 100 mM Tris pH 7.5, 5% ethanol, 1 mM PARP1 peptide, 600 μM AdoHcy; both purified.
Test [2] shares this target. Description: condition: 631 μM PARP1 peptide in the syringe, 40 μM SMYD2 in the cell; ITC; NanoITC SV, 27°C, 25 mM Tris pH 7.5, 50 mM NaCl; 40 μM SMYD2 in the cell, 631 μM PARP1 peptide in the syringe, 16 injections of 15 μL; one-site, two-site and binding polynomial models; both purified.

Regarding RMKLTLKGGAAVD [PARP1 peptide (13-residue synthetic peptide, human PARP1 residues 522-534)], the figures for the binding entry in test [1] and in test [2] were “no binding (tested: 1 mM PARP1 peptide)” and “no binding”, respectively.
